Results as given in US11185594B2 (DAIICHI SANKYO COMPANY, LIMITED, priority 2014, dated 2021).

Experiment: general procedure: solution-phase peptide synthesis; 1-ethyl-3-(3-dimethylaminopropyl)carbodiimide hydrochloride / 1-hydroxybenzotria
Conditions: conjugation step

First: N-(tert-Butoxycarbonyl)-L-serylglycylglycyl-L-phenylalanyl-N-[(1S,9S)-9-ethyl-5-fluoro-9-hydroxy-4-methyl-10,13-dioxo-2,3,9,10,13,15-hexahydro-1H,12H-benzo[de]pyrano[3′,4′:6,7]indolizino[1,2-b]quinolin-1-yl]glycinamide
Second: N-(tert-Butoxycarbonyl)glycylglycyl-L-phenylalanyl-N-(4-{[(1S,9S)-9-ethyl-5-fluoro-9-hydroxy-4-methyl-10,13-dioxo-2,3,9,10,13,15-hexahydro-1H,12H-benzo[de]pyrano[3′,4′:6,7]indolizino[1,2-b]quinolin-1-yl]amino}-4-oxobutyl)glycinamide
The conjugation yield of the first is higher: 82% for the first, 73% for the second.

Compared with “N-(tert-Butoxycarbonyl)glycylglycyl-L-phenylalanyl-N-(5-{[(1S,9S)-9-ethyl-5-fluoro-9-hydroxy-4-methyl-10,13-dioxo-2,3,9,10,13,15-hexahydro-1H,12H-benzo[de]pyrano[3′,4′:6,7]indolizino[1,2-b]quinolin-1-yl]amino}-5-oxopentyl)glycinamide”, “N-(tert-Butoxycarbonyl)glycylglycyl-L-phenylalanylglycyl-N-[(1S,9S)-9-ethyl-5-fluoro-9-hydroxy-4-methyl-10,13-dioxo-2,3,9,10,13,15-hexahydro-1H,12H-benzo[de]pyrano[3′,4′:6,7]indolizino[1,2-b]quinolin-1-yl]-β-alaninamide” is higher in conjugation yield: 84% for the first, 87% for the second.

First: N-[6-(2,5-Dioxo-2,5-dihydro-1H-pyrrol-1-yl)hexanoyl]glycylglycyl-L-phenylalanyl-N-[(1S,9S)-9-ethyl-5-fluoro-9-hydroxy-4-methyl-10,13-dioxo-2,3,9,10,13,15-hexahydro-1H,12H-benzo[de]pyrano[3′,4′:6,7]indolizino[1,2-b]quinolin-1-yl]glycinamide
Second: N-[(9H-Fluoren-9-ylmethoxy)carbonyl]glycylglycyl-N-(4-{[(1S,9S)-9-ethyl-5-fluoro-9-hydroxy-4-methyl-10,13-dioxo-2,3,9,10,13,15-hexahydro-1H,12H-benzo[de]pyrano[3′,4′:6,7]indolizino[1,2-b]quinolin-1-yl]amino}-4-oxobutyl)-L-phenylalaninamide
The conjugation yield of the first is lower: 37% for the first, 40% for the second.

Same assay, conditions: coupling step

Compared with “Ethyl N-(tert-butoxycarbonyl)-L-serylglycylglycyl-L-phenylalanyl glycinate”, “Ethyl N-(tert-butoxycarbonyl)glycylglycyl-L-phenylalanylglycinate” is higher in step yield: 58% for the first, 82% for the second.

Compared with “Glycylglycyl-L-phenylalanyl-O-tert-butyl-N-[(1S,9S)-9-ethyl-5-fluoro-9-hydroxy-4-methyl-10,13-dioxo-2,3,9,10,13,15-hexahydro-1H,12H-yl]-L-serinamide”, “N-(tert-Butoxycarbonyl)glycylglycyl-L-phenylalanylglycylglycylglycylphenylalanyl-N-[(1S,9S)-9-ethyl-5-fluoro-9-hydroxy-4-methyl-10,13-dioxo-2,3,9,10,13,15-hexahydro-1H,12H-yl]glycinamide” is higher in step yield: 49% for the first, 66% for the second.

Compared with “tert-Butyl (3S,6S,15S)-15-benzyl-6-(2-tert-butoxy-2-oxoethyl)-24-{[(1S,9S)-9-ethyl-5-fluoro-9-hydroxy-4-methyl-10,13-dioxo-2,3,9,10,13,15-hexahydro-1H,12H-benzo[de]pyrano[3′,4′:6,7]indolizino[1,2-b]quinolin-1-yl]amino}”, “tert-Butyl (9S,18S)-9-benzyl-1-{[(1S,9S)-9-ethyl-5-fluoro-9-hydroxy-4-methyl-10,13-dioxo-2,3,9,10,13,15-hexahydro-1H,12H-benzo[de]pyrano[3′,4′:6,7]indolizino[1,2-b]quinolin-1-yl]amino}-18-{[(9H-fluoren-9-ylmethoxy)carbonyl]amino}-1,5,8,11,14” is lower in step yield: 72% for the first, 38% for the second.

“β-Alanylglycylglycyl-L-phenylalanyl-N-(4-{[(1S,9S)-9-ethyl-5-fluoro-9-hydroxy-4-methyl-10,13-dioxo-2,3,9,10,13,15-hexahydro-1H,12H-benzo[de]pyrano[3′,4′:6,7]indolizino[1,2-b]quinolin-1-yl]amino}-4-oxobutyl)glycinamide” gave a step yield of 67%.

Same assay, conditions: coupling step, 3 steps

In the case of “Benzyl (5S,14S)-14-benzyl-5-(2-tert-butoxy-2-oxoethyl)-1-(9H-fluoren-9-yl)-7-methyl-3,6,9,12-tetraoxo-2-oxa-4,7,10,13-tetraazapantadecan-15-oate”, the step yield is reported as 87%, 3 steps.

Same assay, conditions: late stage modification step

Going from “Glycylglycyl-L-phenylalanylglycylglycylglycylphenylalanyl-N-[(1S,9S)-9-ethyl-5-fluoro-9-hydroxy-4-methyl-10,13-dioxo-2,3,9,10,13,15-hexahydro-1H,12H-benzo[de]pyrano[3′,4′:6,7]indolizino[1,2-b]quinolin-1-yl]glycinamide” to “N-(2-Aminoethyl)-N-(carboxymethyl)glycylglycyl-L-phenylalanyl-N-(4-{[(1S,9S)-9-ethyl-5-fluoro-9-hydroxy-4-methyl-10,13-dioxo-2,3,9,10,13,15-hexahydro-1H,12H-benzo[de]pyrano[3′,4′:6,7]indolizino[1,2-b]quinolin-1-yl]amino}-4-oxobutyl)glycinamide”, the step yield rises from 66% to 67%.

First: N-(2-Aminoethyl)-N-(carboxymethyl)glycylglycylglycyl-L-phenylalanyl-N-[(1S,9S)-9-ethyl-5-fluoro-9-hydroxy-4-methyl-10,13-dioxo-2,3,9,10,13,15-hexahydro-1H,12H-yl]glycinamide
Second: N-(3-Sulfanylpropanoyl)glycylglycyl-L-phenylalanyl-N-(4-{[(1S,9S)-9-ethyl-5-fluoro-9-hydroxy-4-methyl-10,13-dioxo-2,3,9,10,13,15-hexahydro-1H,12H-benzo[de]pyrano[3′,4′:6,7]indolizino[1,2-b]quinolin-1-yl]amino}-4-oxobutyl)glycinamide
The step yield of the first is lower: 58% for the first, 66% for the second.

Compared with “N-(Bromoacetyl)-β-alanylglycylglycyl-L-phenylalanyl-N-(4-{[(1S,9S)-9-ethyl-5-fluoro-9-hydroxy-4-methyl-10,13-dioxo-2,3,9,10,13,15-hexahydro-1H,12H-benzo[de]pyrano[3′,4′:6,7]indolizino[1,2-b]quinolin-1-yl]amino}-4-oxobutyl)glycinamide”, “N-[6-(2,5-Dioxo-2,5-dihydro-1H-pyrrol-1-yl)hexanoyl]-L-α-aspartyl-N-methylglycylglycyl-L-phenylalanyl-N-[(1S,9S)-9-ethyl-5-fluoro-9-hydroxy-4-methyl-10,13-dioxo-2,3,9,10,13,15-hexahydro-1H,12H-benzo[de]pyrano[3′,4′:6,7]indolizino[1,2-b]quinolin-1-yl]glycinamide” is lower in step yield: 40% for the first, 13% for the second.

“N-{8-[(2,5-Dioxopyrrolidin-1-yl)oxy]-8-oxoocatnoyl}glycylglycyl-L-phenylalanyl-N-(4-{[(1S,9S)-9-ethyl-5-fluoro-9-hydroxy-4-methyl-10,13-dioxo-2,3,9,10,13,15-hexahydro-1H,12H-benzo[de]pyrano[3′,4′:6,7]indolizino[1,2-b]quinolin-1-yl]amino}-4-oxobutyl)glycinamide” and “N^6-(tert-Butoxycarbonyl)-L-lysylglycylglycyl-L-phenylalanyl-N-[(1S,9S)-9-ethyl-5-fluoro-9-hydroxy-4-methyl-10,13-dioxo-2,3,9,10,13,15-hexahydro-1H,12H-benzo[de]pyrano[3′,4′:6,7]indolizino[1,2-b]quinolin-1-yl]glycinamide” are the same in step yield: 71% for the first, 71% for the second.

Going from “tert-Butyl (3S,12S)-3-amino-12-benzyl-21-{[(1S,9S)-9-ethyl-5-fluoro-9-hydroxy-4-methyl-10,13-dioxo-2,3,9,10,13,15-hexahydro-1H,12H-benzo[de]pyrano[3′,4′:6,7]indolizino[1,2-b]quinolin-1-yl]amino}-4,7,10,13,16,21-hexaoxo-5,8,11,14,17-pentaazaheneicosan-1-oate” to “tert-Butyl (5S,14S)-14-amino-5-benzyl-1-{[(1S,9S)-9-ethyl-5-fluoro-9-hydroxy-4-methyl-10,13-dioxo-2,3,9,10,13,15-hexahydro-1H,12H-benzo[de]pyrano[3′,4′:6,7]indolizino[1,2-b]quinolin-1-yl]amino}-12-methyl-1,4,7,10,13-pentaoxo-3,6,9,12-tetraazapentadecan-16-oate”, the step yield falls from 85% to 83%.

Same assay, conditions: late stage modification step, trifluoroacetic acid salt

“Glycylglycyl-L-phenylalanyl-N-(4-{[(1S,9S)-9-ethyl-5-fluoro-9-hydroxy-4-methyl-10,13-dioxo-2,3,9,10,13,15-hexahydro-1H,12H-benzo[de]pyrano[3′,4′:6,7]indolizino[1,2-b]quinolin-1-yl]amino}-4-oxobutyl)glycinamide” and “Glycylglycyl-L-phenylalanyl-N-(5-{[(1S,9S)-9-ethyl-5-fluoro-9-hydroxy-10,13-dioxo-2,3,9,10,13,15-hexahydro-1H,12H-benzo[de]pyrano[3′,4′:6,7]indolizino[1,2-b]quinolin-1-yl]amino}-5-oxopentyl)glycinamide” are the same in step yield: 99% for the first, 99% for the second.

First: Glycylglycyl-L-phenylalanylglycyl-N-[(1S,9S)-9-ethyl-5-fluoro-9-hydroxy-4-methyl-10,13-dioxo-2,3,9,10,13,15-hexahydro-1H,12H-benzo[de]pyrano[3′,4′:6,7]indolizino[1,2-b]quinolin-1-yl]-β-alaninamide trifluoroacetic acid salt
Second: L-Serylglycylglycyl-L-phenylalanyl-N-[(1S,9S)-9-ethyl-5-fluoro-9-hydroxy-4-methyl-10,13-dioxo-2,3,9,10,13,15-hexahydro-1H,12H-benzo[de]pyrano[3′,4′:6,7]indolizino[1,2-b]quinolin-1-yl]glycinamide
The step yield of the first is higher: 92% for the first, 91% for the second.

With “N^2-[6-(2,5-Dioxo-2,5-dihydro-1H-pyrrol-1-yl)hexanoyl]-L-lysylglycylglycyl-L-phenylalanyl-N-[(1S,9S)-9-ethyl-5-fluoro-9-hydroxy-4-methyl-10,13-dioxo-2,3,9,10,13,15-hexahydro-1H,12H-benzo[de]pyrano[3′,4′:6,7]indolizino[1,2-b]quinolin-1-yl]gl” the step yield was 78%.
